Source: patent US20250214973A1, “1,4,5-TRISUBSTITUTED-1,2,3-TRIAZOLES AND USES THEREOF” (UNIVERSITY OF PUERTO RICO, priority 2022, published 2025)
For some of these results: At least one structure is not confirmed: it was looked up by name or label, or the drawing left a doubt. Some of these results come from one statement about several compounds together.

Experiments:
[1] = system: MDA-MB-468; assay: Cell viability assay (MTT); type: cell-based; conditions: 500 nM, 72 hours
Procedure: (§1) Cells plated at equal density were treated at 500 nM of compounds. After 72 hours, cell viability was measured by a MTT assay. n=3; * p<0.05, ** p<0.01, *** p<0.001.
(§2) Equal number of cells were seeded in a 24 well plate and incubated with vehicle or compounds according to this disclosure at concentrations between 1 and 0.001 nM for 72 and 120 hrs. Using CellTiter 96 Non-Radioactive Cell Proliferation Assay (Promega, Corp.) according to manufactures' instructions, formazan was used as an indicator of viable cells at an absorbance 570 nm in a Tecan Microplate Reader M100. Data was calculated as fold change from vehicle and fitted using the 4′parameter logic nonlinear regression model in GraphPad Prism software. (n=3 biologic replicates: with 3 technical replicates each).

[2] = system: MCF10A; assay: Cell viability assay (MTT); type: cell-based; conditions: 250 nM (FIG. 1C)
[3] = target: T1, Vav2 binding to Rac1 (Homo sapiens, UniProt P63000, G15A); assay: Rac1 GEF assay, Rac1(G15A) pulldown
T1 construct: purchased Cell Biolabs, San Diego; CA; host or cells: Vav2 from MDA-MB-231 cell lysate
Procedure: GST-Rac1 (G15A) beads were pre-incubated with vehicle (0.1% DMSO), or 8 μM EHop-016, or 250 nM Compound 4c for 1 hour followed by incubation with MDA-MB-231 cell lysates (equal total protein). Representative Western blot for Rac1(G15A) or pulldowns immunostained for Vav2 is shown (n=3).
MDA-MB-231 cells in culture medium were lysed in 1% Triton X-100, 20 mM HEPES, pH 7.4, 150 mM NaCl, 5 mm MgCl2, and protease inhibitors and processed. Equal amounts of protein from cleared lysates were incubated for 1 h at 4° C. with glutathione-agarose beads conjugated to GST-Rac1(G15A) nucleotide-free mutant (Cell Biolabs, San Diego. CA) that were preincubated (for 1 h) with vehicle or 8 μm EHop-016 or 0.25 μM Compound 4c. The beads were washed, and the lysates and pull-downs were immunoblotted for Tiam-1, Trio, Ect2, p-REX, or Vav2.

[4] = target: Rac1 / Vav2 DH/PH domain (Homo sapiens, UniProt P63000); assay: Vav2-catalysed nucleotide exchange on Rac1 (mant FRET); type: biochemical; conditions: 2 or 10 μM
[5] = system: MDA-MB-231; assay: Cell viability assay (MTT); type: cell-based, human
Procedure: Cells plated at equal density were treated at 500 nM of compounds. […]
(§3) Cells plated at equal density were treated at 250 nM of 4c at 250 nM.
(§4) Data from 3 biologic replicates each with 2 technical replicates. Four parameter dose-response curves generated using GraphPad Prism are shown.
Cell viability relative to vehicle (100%) is shown.
as §2, with “Equal number of cells were seeded in a 24 well plate and incubated with vehicle or compounds according to this disclosure at concentrations between 1 and 0.001 nM for 72 and 120 hrs.” left out
A range of compounds were tested by MTT assays for cell viability in MDA-MB-231 triple negative breast cancer (TNBC) cells and MDA-MB-435 HER2++ cancer cells.

[6] = system: MDA-MB-231; assay: Wound healing assay; type: cell-based, human; conditions: 250 nM, 12 and 24 hr
[7] = system: MDA-MB-435; assay: Cell viability assay (MTT); type: cell-based, human; conditions: 500 nM
Procedure: as §1, §3, §4
[…]. GI50 was calculated using Graph pad Prism.
as §2, with “Equal number of cells were seeded in a 24 well plate and incubated with vehicle or compounds according to this disclosure at concentrations between 1 and 0.001 nM for 72 and 120 hrs.” left out
A range of compounds were tested by MTT assays for cell viability in MDA-MB-231 triple negative breast cancer (TNBC) cells and MDA-MB-435 HER2++ cancer cells. […].

[8] = system: MDA-MB-231; assay: Actin cytoskeleton staining; type: cell-based, human; conditions: 250 nM, 12 hr
[9] = system: MCF7; assay: Cell viability assay (MTT); type: cell-based; conditions: 250 nM (FIG. 1C)
[10] = system: MDA-MB-435; assay: Apoptosis assay, caspase 3/7 activity; type: cell-based, human; conditions: 500 nM, 48 hours
Procedure: (§5) Cells plated at equal density were treated at 500 nM of compounds. After 48 hours, caspase 3/7 activity was measured by luminescence. n=3; * p<0.05, ** p<0.01.
(§6) Equal number of cells were seeded incubated with vehicle or compounds according to this disclosure at 250 or 500 nM for 48 hrs. Apoptosis was measured using a Caspase-Glo3/7 Luminescence Assay Kit as per manufacturer's instructions (Promega, Corp.). Briefly, Caspase-3/7 Glo reagent was added and incubated at room temperature for 60 min and Caspase-3/7 activities were determined by detecting luminescence using Tecan Microplate Reader M100. (n=3 biologic replicates: with 3 technical replicates each).

[11] = system: MDA-MB-231; assay: Apoptosis assay, caspase 3/7 activity; type: cell-based, human; conditions: 500 nM, 48 hours
Procedure: as §5, §6

[12] = target: T2, Rac1B (Homo sapiens, UniProt P63000); assay: Rac activation pulldown in MDA-MB-468 cells; type: cell-based; conditions: 250 nM, 24 hours
T2 construct: the MDA-MB-468 TNBC cell line, which also expresses the oncogenic Rac1B; endogenous in cells; host or cells: MDA-MB-468

[13] = target: Rac1 (Homo sapiens, UniProt P63000); assay: Rac activation pulldown in MDA-MB-468 cells; type: cell-based; set-up: MDA-MB-468 breast cancer cells were treated for 24 hours; endogenous in cells; host or cells: MDA-MB-468; conditions: 250 nM, 24 hours
[14] = system: Rac; assay: Rac activation pulldown (GST-CRIB of PAK) in MDA-MB-435 cells; type: cell-based, human; conditions: 250 nM, 24 hours
Source text: (§7) Cells were lysed and equal amounts of proteins were subjected to pull-down assays using a GST-fusion protein of the Cdc42-rac interactive binding (CRIB) domain of P21-activated kinase (PAK). The pulldowns of Rac.GTP and whole cell lysates were western blotted with a pan Rac1/2/3 antibody.
as §7

Compound	effect on cell viability, MDA-MB-468 [1]	effect on viability, MCF-10 [2]	GEF displaced among Tiam-1, Ect2, p-REX, Vav2 ([3]; MDA-MB-231 lysates)	activity relative to EHop-016 ([3]; Vav2/Rac1 binding)	GDP/GTP exchange on Rac1 in the presence of Vav2 [4]	effect on viability, MDA-MB-231 ([5]; 250 nM (FIG. 1C))	effect on cell viability, MDA-MB-231 ([5]; 500 nM)	wound area vs vehicle, MDA-MB-231 [6]	effect on cell viability, MDA-MB-435 [7]	cell phenotype, F-actin staining [8]	effect on viability, MCF7 [9]	Caspase 3/7 activity compared to the vehicle, MDA-MB-435 [10]	Caspase 3/7 activity compared to the vehicle, MDA-MB-231 [11]	Rac1B activation by GTP incorporation [12]	Rac1 activation by GTP incorporation [13]	% Rac inhibition [14]
CCn1c2ccccc2c2cc(-n3nnc(C(O)c4cccc(OC)c4)c3-c3ccccc3)ccc21 (stereo not shown) [Compound 4c, (1-(9-ethyl-9H-carbazol-3-yl)-5-phenyl-1H-1,2,3-triazol-4-yl) (3-methoxyphenyl) methanol]	non-statistically significant trend	not effective	Vav2 was the only GEF that was displaced	~30 ×	inhibited the increase in exchange	not effective	inhibited cell viability	wound area was maintained	inhibited cell viability	smaller and less spread	not effective	three to five times more	three to five times more	inhibits both Rac1 and Rac1B activation	inhibits both Rac1 and Rac1B activation	–
CCn1c2ccccc2c2cc(-n3nnc(C(=O)O)c3-c3ccccc3)ccc21 [Compound 7, 1-(9-Ethyl-9H-carbazol-3-yl)-5-phenyl-1H-1,2,3-triazole-4-carboxylic acid]	–	–	–	–	–	–	–	–	–	–	–	–	–	–	–	60-70%
